From patent US20120100073A1, “PET RADIOTRACERS FOR IMAGING FATTY ACID METABOLISM AND STORAGE” (WASHINGTON UNIVERSITY, priority 2009, published 2012)

Assay: microPET imaging and myocardial time-activity curves (tracer kinetics) in a fed rat
Type: in vivo
Details: data acquired 20-30 mins after tracer injection
Procedure: Animal Preparation. All animal procedures are conducted in compliance with the guidelines for the care and use of research animals established by the Animal Studies Committee of Washington University. Animal preparation is performed as described previously.^24-26 Rats are housed in metabolism cages and anesthetized by inhalation of […] isoflurane administered via an induction chamber. Anesthesia can be maintained throughout the imaging session by delivering 1%-1.5% isoflurane via a custom-designed nose cone. Venous access is via the right jugular vein. Body temperature can be maintained using a circulating water blanket and a heat lamp. Heart and respiration rates can be monitored throughout the process.
PET Acquisition. The animals can be secured in a custom-designed acrylic restraining device and placed inside the field of view of the small-animal imaging PET scanner. Imaging acquisition starts Ss after a bolus injection of tracer via the right jugular catheter. The imaging protocol consists of dynamic acquisition of microPET images of ^11C-palmitate (5-7mCI) followed by ^18F-FAA or by ^18F-VLDL (5-7mCi) alone. Dynamic mage acquisition during ^11C-palmitate and either ^18F-FAA or ^18F-FAA-VLDL can be 30 and 60 min, respectively. The total time of the imaging session can be ˜3 hrs. […]

For O=C(O)CCCCCCCCCCCCCCc1ccc(OCC[18F])cc1 [^18F-FAA], the “image quality of myocardial microPET images” value was “excellent quality” and the “tracer activity in images compared with ^11C-palmitate images” value was “higher tracer activity than ^11C-palmitate images”.
